These are yes or no findings as the source states them, for the method shown. Binding seen in cells or lysates may run through a third protein. Some results given as binding are weak or reduced against the parent protein; the word gives no strength.
Biological target: Flag-PREX2 (UniProt Q70Z35)
Test: co-IP; exogenous proteins in HEK293T; IP with Flag antibody, detected by HA antibody

Protein sequences, listed by entry. Tags and fused reporters are not part of them. Lines headed by an entry give the natural chain unless they say otherwise; changes in a name come on top.
UniProt Q70Z35: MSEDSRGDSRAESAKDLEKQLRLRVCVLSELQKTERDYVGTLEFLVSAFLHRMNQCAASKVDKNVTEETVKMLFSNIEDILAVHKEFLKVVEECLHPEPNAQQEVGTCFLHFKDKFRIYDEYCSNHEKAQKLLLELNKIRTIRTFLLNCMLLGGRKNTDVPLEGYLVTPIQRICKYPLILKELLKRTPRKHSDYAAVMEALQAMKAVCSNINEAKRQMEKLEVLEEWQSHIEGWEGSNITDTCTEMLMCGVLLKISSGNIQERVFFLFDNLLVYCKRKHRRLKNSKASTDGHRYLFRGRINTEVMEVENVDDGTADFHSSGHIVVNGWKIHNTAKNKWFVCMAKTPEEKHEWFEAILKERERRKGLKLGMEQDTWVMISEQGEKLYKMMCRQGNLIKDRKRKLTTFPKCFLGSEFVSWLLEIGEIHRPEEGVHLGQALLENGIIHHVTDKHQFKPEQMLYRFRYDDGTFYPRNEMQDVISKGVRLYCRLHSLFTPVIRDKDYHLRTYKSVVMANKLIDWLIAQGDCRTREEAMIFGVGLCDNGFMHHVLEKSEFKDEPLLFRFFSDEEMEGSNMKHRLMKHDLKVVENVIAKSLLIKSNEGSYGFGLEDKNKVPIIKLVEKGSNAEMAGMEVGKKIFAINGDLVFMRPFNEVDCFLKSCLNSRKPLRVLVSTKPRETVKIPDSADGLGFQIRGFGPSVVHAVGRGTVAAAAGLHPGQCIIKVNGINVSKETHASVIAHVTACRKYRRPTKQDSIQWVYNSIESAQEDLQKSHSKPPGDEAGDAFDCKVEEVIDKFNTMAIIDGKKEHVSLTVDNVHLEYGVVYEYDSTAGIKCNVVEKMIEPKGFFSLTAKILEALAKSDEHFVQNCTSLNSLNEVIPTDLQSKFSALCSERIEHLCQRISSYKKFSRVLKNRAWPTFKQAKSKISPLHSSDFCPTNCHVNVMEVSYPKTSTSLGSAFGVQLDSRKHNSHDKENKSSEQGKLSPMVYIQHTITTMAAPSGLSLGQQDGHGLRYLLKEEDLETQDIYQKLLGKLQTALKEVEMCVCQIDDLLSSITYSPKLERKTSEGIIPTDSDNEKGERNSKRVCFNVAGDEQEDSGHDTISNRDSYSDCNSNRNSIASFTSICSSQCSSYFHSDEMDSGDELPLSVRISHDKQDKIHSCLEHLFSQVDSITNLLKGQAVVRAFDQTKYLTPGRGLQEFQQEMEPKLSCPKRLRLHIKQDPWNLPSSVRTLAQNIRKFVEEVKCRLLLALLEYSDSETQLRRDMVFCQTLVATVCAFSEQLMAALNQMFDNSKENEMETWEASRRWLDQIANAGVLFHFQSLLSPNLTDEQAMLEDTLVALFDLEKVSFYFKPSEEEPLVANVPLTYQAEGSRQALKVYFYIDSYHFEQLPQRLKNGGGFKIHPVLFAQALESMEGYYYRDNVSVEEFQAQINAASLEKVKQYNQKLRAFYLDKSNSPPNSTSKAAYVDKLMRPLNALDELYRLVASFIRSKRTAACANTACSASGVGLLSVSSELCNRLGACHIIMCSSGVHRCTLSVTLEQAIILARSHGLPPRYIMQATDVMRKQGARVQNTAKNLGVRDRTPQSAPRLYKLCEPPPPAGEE
UniProt O43865: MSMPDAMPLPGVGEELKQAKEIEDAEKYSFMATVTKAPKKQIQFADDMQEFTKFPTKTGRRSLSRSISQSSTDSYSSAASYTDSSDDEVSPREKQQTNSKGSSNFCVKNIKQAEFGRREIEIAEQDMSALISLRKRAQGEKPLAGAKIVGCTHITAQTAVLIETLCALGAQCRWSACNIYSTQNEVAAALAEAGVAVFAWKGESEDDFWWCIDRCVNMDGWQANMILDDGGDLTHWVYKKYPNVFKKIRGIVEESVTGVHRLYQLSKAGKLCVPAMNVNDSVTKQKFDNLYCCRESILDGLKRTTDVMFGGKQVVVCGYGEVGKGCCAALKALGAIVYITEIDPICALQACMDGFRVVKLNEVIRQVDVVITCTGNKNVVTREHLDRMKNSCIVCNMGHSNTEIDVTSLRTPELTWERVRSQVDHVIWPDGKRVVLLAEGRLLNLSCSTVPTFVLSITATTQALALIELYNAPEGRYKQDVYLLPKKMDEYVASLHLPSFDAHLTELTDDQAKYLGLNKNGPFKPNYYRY

Row | Substance | binding
1 | HA-AHCYL1 truncation 1-104 (from UniProt O43865 1-104) (domain or fragment) | no binding
2 | HA-AHCYL1 truncation 104-530 (from UniProt O43865 104-530) (domain or fragment) | binds
